Test results from patent US20200190593A1, “SPLICEOSOME MUTATIONS AND USES THEREOF” (EISAI R&D MANAGEMENT CO., LTD., priority 2017, published 2020).
No constants are given. Whether binding was seen depends on the method and setting. In cells and extracts the contact can be indirect. Some results given as binding are weak or reduced against the parent protein; the word gives no strength.

The chains behind the UniProt entries cited, without tags or fusion partners. Where a name states a change or a piece, a line headed by the entry shows the natural chain unless it says otherwise. Residues count along the entry.
UniProt O75533: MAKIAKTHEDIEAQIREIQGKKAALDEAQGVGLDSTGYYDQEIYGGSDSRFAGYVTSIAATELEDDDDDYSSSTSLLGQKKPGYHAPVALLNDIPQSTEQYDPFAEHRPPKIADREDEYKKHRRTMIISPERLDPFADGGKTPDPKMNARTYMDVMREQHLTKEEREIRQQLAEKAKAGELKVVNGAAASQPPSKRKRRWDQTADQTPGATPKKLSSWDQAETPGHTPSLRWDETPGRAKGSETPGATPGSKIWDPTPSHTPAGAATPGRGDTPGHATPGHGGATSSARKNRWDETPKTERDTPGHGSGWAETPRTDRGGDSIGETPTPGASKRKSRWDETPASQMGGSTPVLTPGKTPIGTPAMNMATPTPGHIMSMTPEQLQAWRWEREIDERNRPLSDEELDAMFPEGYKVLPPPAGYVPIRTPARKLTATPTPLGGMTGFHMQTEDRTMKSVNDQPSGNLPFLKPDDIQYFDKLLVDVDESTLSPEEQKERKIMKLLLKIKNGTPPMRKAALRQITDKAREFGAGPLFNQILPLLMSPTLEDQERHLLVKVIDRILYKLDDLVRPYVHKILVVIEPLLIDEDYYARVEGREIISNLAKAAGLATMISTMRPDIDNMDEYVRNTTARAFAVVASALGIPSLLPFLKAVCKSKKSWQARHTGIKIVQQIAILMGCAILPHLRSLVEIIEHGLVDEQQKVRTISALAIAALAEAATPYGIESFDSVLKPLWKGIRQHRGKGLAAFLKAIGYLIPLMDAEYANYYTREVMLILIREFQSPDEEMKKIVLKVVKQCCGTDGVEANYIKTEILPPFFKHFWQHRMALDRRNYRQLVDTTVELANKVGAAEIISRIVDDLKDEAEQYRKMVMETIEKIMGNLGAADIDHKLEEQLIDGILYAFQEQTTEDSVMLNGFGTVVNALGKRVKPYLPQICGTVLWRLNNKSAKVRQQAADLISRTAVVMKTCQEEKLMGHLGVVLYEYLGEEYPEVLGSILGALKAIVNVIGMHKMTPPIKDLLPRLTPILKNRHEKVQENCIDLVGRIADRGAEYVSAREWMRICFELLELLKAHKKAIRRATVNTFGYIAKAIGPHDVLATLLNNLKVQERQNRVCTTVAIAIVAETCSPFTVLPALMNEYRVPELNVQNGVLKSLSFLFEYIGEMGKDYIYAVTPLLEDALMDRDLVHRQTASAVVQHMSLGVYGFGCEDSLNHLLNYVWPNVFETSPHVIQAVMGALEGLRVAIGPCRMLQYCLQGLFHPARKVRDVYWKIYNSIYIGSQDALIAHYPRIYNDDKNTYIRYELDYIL
UniProt Q9BWJ5, residues 2-86: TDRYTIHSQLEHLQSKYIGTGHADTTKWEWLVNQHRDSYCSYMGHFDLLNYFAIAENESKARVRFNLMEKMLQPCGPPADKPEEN
UniProt Q15393: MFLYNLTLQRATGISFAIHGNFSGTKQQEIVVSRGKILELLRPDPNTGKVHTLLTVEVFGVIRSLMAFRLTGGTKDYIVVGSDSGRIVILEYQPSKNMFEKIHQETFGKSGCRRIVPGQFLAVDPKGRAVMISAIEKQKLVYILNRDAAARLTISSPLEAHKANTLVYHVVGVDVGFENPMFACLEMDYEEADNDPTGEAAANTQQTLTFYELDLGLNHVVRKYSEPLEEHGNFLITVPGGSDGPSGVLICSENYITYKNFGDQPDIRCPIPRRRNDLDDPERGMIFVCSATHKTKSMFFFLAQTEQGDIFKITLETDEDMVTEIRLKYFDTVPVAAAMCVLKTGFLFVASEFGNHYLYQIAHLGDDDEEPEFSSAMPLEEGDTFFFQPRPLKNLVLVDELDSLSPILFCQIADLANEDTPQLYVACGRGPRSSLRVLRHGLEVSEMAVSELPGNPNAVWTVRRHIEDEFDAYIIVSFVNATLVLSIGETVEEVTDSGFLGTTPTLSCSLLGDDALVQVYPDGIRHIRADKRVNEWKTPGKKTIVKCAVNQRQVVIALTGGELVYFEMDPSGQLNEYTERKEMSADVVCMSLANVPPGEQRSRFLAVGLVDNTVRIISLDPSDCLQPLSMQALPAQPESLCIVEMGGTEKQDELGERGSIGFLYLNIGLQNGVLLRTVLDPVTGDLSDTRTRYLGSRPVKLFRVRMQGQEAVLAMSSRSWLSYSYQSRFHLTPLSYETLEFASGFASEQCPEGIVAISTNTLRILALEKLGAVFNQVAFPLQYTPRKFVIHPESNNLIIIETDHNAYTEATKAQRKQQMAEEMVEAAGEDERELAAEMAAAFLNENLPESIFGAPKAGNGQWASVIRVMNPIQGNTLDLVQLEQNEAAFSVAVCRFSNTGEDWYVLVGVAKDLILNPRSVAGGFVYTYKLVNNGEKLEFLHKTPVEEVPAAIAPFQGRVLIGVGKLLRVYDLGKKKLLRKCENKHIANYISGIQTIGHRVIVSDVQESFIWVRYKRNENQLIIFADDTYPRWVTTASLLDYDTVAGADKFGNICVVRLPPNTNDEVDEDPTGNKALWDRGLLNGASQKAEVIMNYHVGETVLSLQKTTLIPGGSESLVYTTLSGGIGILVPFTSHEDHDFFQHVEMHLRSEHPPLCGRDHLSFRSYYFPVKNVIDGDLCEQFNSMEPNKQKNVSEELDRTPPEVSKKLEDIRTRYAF

Assays:
[1] = biological target: truncated SF3B1, HEAT repeat domain residues 454-1304, with N-terminal FLAG tag (human) (UniProt O75533); experiment: recombinant four-protein complex, co-purification
[2] = biological target: truncated SF3B1, HEAT repeat domain residues 454-1304, with N-terminal FLAG tag (human) (UniProt O75533); experiment: co-expression in SF21 cells, co-purification on nickel and FLAG beads, gel filtration

Substance	binding [1]	binding [2]
full-length SF3B5 with N-terminal His-tag (from UniProt Q9BWJ5 2-86)	binds	binds
full-length SF3B3 with N-terminal His-tag (from UniProt Q15393 1-1217)	binds	binds
